In the supplement of paper PMC10849652:
Some of the results follow.

Protein sequences, listed by entry. Tags and fused reporters are not part of them. Lines headed by an entry give the natural chain unless they say otherwise; changes in a name come on top.
UniProt P13489: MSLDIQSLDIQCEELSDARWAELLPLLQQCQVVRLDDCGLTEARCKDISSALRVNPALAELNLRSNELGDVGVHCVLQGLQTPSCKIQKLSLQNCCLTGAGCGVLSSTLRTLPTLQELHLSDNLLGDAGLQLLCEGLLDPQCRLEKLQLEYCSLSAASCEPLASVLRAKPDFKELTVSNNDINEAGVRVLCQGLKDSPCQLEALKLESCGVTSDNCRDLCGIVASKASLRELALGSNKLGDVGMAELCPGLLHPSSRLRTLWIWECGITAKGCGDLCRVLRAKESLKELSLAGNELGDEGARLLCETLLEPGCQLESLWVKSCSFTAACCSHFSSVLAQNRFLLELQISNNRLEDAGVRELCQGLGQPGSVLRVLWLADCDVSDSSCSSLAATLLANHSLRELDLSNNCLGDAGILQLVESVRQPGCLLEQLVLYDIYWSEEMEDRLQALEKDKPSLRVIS
UniProt O75818: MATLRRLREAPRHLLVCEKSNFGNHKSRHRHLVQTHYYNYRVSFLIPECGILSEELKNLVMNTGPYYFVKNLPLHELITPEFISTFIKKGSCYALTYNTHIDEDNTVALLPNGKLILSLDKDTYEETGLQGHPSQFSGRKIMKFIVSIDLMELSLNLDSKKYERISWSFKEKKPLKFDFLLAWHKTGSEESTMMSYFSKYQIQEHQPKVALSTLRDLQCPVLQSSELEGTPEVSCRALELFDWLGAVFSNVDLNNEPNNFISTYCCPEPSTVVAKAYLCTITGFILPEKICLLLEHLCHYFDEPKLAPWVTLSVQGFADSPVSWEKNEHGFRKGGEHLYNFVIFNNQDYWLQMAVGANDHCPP
UniProt P23443: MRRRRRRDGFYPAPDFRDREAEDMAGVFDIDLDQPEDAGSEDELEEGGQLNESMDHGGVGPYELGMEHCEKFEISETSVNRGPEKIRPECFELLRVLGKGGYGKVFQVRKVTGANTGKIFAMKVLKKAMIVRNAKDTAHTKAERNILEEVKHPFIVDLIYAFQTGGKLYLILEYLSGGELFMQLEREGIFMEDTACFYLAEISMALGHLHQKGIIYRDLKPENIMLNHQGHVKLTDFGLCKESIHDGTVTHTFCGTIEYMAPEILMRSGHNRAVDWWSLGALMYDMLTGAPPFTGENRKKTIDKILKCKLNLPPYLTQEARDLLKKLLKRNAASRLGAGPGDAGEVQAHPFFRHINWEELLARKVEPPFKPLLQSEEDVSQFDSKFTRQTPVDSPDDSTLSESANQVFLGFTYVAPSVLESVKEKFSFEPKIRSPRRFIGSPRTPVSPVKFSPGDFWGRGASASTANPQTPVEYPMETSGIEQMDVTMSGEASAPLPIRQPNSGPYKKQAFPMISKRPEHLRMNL
UniProt Q01974, whole entry, looked up: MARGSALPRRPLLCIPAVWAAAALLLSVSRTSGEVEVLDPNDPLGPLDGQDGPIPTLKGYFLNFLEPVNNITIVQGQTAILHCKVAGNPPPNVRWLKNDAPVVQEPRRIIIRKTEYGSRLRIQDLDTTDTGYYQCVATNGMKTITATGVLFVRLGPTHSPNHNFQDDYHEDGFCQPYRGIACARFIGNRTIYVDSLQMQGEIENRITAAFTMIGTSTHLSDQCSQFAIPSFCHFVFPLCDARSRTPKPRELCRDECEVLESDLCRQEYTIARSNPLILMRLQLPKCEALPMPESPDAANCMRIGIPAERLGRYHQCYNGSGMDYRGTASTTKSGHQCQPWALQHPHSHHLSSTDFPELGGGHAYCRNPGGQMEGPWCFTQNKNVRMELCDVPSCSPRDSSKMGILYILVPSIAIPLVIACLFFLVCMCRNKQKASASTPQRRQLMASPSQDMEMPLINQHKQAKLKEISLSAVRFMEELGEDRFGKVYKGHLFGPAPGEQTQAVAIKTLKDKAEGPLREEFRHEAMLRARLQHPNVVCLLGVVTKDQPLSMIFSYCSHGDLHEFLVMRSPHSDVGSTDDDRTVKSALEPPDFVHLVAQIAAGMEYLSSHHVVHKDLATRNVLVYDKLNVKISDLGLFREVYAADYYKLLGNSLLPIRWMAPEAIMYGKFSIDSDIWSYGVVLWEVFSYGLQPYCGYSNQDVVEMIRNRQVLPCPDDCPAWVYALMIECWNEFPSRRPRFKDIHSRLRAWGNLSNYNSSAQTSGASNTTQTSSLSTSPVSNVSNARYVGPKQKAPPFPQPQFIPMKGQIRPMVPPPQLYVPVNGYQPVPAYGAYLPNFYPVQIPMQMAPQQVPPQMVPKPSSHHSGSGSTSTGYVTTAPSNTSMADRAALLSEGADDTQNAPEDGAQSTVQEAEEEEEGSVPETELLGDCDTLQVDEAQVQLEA
UniProt P23921: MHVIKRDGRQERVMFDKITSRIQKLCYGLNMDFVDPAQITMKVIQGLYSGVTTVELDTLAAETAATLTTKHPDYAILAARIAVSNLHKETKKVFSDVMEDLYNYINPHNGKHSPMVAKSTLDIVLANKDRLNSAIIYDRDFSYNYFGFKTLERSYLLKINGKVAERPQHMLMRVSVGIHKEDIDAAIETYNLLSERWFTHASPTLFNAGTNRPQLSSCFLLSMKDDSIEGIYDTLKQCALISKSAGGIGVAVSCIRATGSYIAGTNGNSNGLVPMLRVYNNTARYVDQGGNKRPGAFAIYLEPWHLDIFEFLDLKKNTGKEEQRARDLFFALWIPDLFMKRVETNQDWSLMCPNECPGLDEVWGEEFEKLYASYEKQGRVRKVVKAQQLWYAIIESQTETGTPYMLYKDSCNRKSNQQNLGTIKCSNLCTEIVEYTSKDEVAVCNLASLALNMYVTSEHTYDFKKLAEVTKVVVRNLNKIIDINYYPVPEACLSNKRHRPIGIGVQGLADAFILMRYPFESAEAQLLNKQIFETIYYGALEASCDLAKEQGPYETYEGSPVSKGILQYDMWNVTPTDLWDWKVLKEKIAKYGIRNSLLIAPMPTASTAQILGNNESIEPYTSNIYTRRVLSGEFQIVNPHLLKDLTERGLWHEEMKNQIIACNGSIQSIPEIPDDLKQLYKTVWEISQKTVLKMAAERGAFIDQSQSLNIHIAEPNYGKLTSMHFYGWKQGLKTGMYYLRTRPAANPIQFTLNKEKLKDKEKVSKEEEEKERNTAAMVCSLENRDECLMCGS
UniProt Q8IZ73: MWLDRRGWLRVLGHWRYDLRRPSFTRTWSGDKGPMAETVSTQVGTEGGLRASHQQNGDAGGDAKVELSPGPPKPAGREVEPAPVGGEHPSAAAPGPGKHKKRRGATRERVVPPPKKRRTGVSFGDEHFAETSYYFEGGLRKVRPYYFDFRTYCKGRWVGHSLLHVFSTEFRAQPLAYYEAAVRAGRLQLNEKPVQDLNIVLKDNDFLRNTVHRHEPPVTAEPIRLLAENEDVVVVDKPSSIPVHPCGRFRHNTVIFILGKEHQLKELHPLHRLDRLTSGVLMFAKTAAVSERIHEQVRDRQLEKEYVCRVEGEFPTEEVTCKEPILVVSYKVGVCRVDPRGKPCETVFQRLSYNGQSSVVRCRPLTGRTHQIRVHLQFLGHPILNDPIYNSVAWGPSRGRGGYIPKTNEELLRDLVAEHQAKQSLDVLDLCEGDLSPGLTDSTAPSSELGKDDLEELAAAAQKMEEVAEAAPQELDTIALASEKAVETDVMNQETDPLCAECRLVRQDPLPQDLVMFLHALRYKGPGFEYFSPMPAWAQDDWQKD
UniProt P62070: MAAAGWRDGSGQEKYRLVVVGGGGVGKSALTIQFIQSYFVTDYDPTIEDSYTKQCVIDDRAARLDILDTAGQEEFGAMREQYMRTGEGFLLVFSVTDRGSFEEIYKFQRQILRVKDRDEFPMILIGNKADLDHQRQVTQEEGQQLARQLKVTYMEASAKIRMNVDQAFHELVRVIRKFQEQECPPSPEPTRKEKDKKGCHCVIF

Columns and labels:
Experiment in all cases: log2 fold change, soluble protein after heating vs DMSO (PISA); higher = thermal stabilisation; K562 cells, 10 uM, 30 min; active = over 0.2 and 3.5 SD of the protein, either way, in both replicates (recomputed)
bafetinib = compound: Cc1ccc(NC(=O)c2ccc(CN3CC[C@H](N(C)C)C3)c(C(F)(F)F)c2)cc1Nc1nccc(-c2cncnc2)n1 [bafetinib]
Summary of the method: (§1)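 Soluble protein was defined as the supernatant after 21,000xg for 90 min. It came from K562 cells at 2×10^6 cells/mL given 10 μM compound for 30 min, heated in aliquots for 3 min across 48°C-58°C, pooled, and extracted in PBS with 0.5% NP-40 at 4°C, and was quantified by TMTpro 16plex LC-MS/MS with equalised channel sums. Thermal stability against control samples, from duplicates, is reported as log2 fold change.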

[1] = compound: Cc1cccc(CC(=O)N2CCc3c2ccc(-c2cn(C)c4ncnc(N)c24)c3F)n1
Summary of the method: as §1

nilotinib = compound: Cc1cn(-c2cc(NC(=O)c3ccc(C)c(Nc4nccc(-c5cccnc5)n4)c3)cc(C(F)(F)F)c2)cn1 [nilotinib]
Summary of the method: as §1

[2] = compound: Cc1nc(Nc2n[nH]c3c2CN(C(=O)N[C@H](CN(C)C)c2ccccc2)C3(C)C)c2sccc2n1
Summary of the method: as §1

dasatinib = compound: Cc1nc(Nc2ncc(C(=O)Nc3c(C)cccc3Cl)s2)cc(N2CCN(CCO)CC2)n1 [dasatinib]
Summary of the method: as §1

[3] = compound: Cc1ncc(-c2ccnc(Nc3ccc(S(C)(=O)=O)cc3)n2)n1C(C)C
Summary of the method: as §1

[4] = compound: Cn1cc(-c2ccc3c(c2)CCN3C(=O)Cc2cccc(C(F)(F)F)c2)c2c(N)ncnc21
Summary of the method: as §1

[5] = compound: Cn1cc(-c2ccc3nnc(C(F)(F)c4ccc5ncccc5c4)n3n2)cn1
Summary of the method: as §1

tipifarnib = compound: Cn1cncc1[C@@](N)(c1ccc(Cl)cc1)c1ccc2c(c1)c(-c1cccc(Cl)c1)cc(=O)n2C [tipifarnib]
Summary of the method: as §1

mubritinib = compound: FC(F)(F)c1ccc(/C=C/c2nc(COc3ccc(CCCCn4ccnn4)cc3)co2)cc1 [mubritinib]
Summary of the method: as §1

[6] = compound: NC(=O)Nc1cc(-c2cccc(F)c2)sc1C(=O)N[C@H]1CCCNC1
Summary of the method: as §1

[7] = compound: NC(=O)c1cnc(N[C@@H]2CCCC[C@@H]2N)nc1Nc1cccc(-n2nccn2)c1
Summary of the method: as §1

[8] = compound: NC1(c2ccc(-c3nc4ccn5c(=O)[nH]nc5c4cc3-c3ccccc3)cc2)CCC1
Summary of the method: as §1

[9] = compound: NCC(=O)Nc1ccc(-n2nc(C(F)(F)F)cc2-c2ccc3c(ccc4ccccc43)c2)cc1
Summary of the method: as §1

entinostat = compound: Nc1ccccc1NC(=O)c1ccc(CNC(=O)OCc2cccnc2)cc1 [entinostat]
Summary of the method: as §1

vorinostat = compound: O=C(CCCCCCC(=O)Nc1ccccc1)NO [vorinostat]
Summary of the method: as §1

citarinostat = compound: O=C(CCCCCCNC(=O)c1cnc(N(c2ccccc2)c2ccccc2Cl)nc1)NO [citarinostat]
Summary of the method: as §1

silmitasertib = compound: O=C(O)c1ccc2c(c1)nc(Nc1cccc(Cl)c1)c1ccncc12 [silmitasertib]
Summary of the method: as §1

[10] = compound: O=C1NC(=O)C(c2cnc3ccccn23)=C1c1cn2c3c(cc(F)cc13)CN(C(=O)N1CCCCC1)CC2
Summary of the method: as §1

[11] = compound: c1cc(OCCN2CCCCC2)cc(-c2n[nH]c3ccc(-c4nnc[nH]4)cc23)c1
Summary of the method: as §1

Measured: log2 fold change

RPS27A (UniProt P62979)
inactive: bafetinib 0.147 | [1] 0.023 | nilotinib 0.056 | [2] 0.2 | dasatinib 0.119 | [3] 0.007 | [4] -0.172 | [5] 0 | tipifarnib 0.079 | mubritinib -0.121 | [6] 0.024 | [7] 0.16 | [8] 0.286 | [9] 0.177 | entinostat -0.047 | vorinostat -0.007 | citarinostat -0.211 | silmitasertib 0.05 | [10] 0.064 | [11] -0.06

RNH1 (UniProt P13489)
inactive: bafetinib -0.032 | [1] 0.035 | nilotinib -0.05 | [2] 0.019 | dasatinib -0.028 | [3] -0.032 | [4] 0.037 | [5] 0.018 | tipifarnib -0.072 | mubritinib 0.032 | [6] -0.01 | [7] -0.027 | [8] -0.077 | [9] -0.005 | entinostat -0.002 | vorinostat 0.002 | citarinostat 0.036 | silmitasertib 0.009 | [10] -0.075 | [11] -0.005

RPP40 (UniProt O75818)
inactive: bafetinib 0.039 | [1] -0.083 | nilotinib -0.029 | [2] -0.031 | dasatinib 0.039 | [3] 0.009 | [4] -0.004 | [5] 0.017 | tipifarnib 0.018 | mubritinib 0.001 | [6] -0.004 | [7] -0.061 | [8] -0.004 | [9] 0.048 | entinostat -0.058 | vorinostat -0.064 | citarinostat 0 | silmitasertib 0.019 | [10] 0.076 | [11] -0.145

RPS24 isoform 4 (UniProt P62847)
inactive: bafetinib 0.269 | [1] 0 | nilotinib 0.046 | [2] 0.191 | dasatinib 0.134 | [3] -0.02 | [4] -0.234 | [5] -0.055 | tipifarnib 0.127 | mubritinib -0.105 | [6] 0.092 | [7] 0.121 | [8] 0.196 | [9] 0.076 | entinostat -0.017 | vorinostat 0.044 | citarinostat -0.06 | silmitasertib 0.067 | [10] 0.147 | [11] -0.198

2 entries drawn at random from those above:
RNH1 (UniProt P13489)
inactive: bafetinib -0.032 | [1] 0.035 | nilotinib -0.05 | [2] 0.019 | dasatinib -0.028 | [3] -0.032 | [4] 0.037 | [5] 0.018 | tipifarnib -0.072 | mubritinib 0.032 | [6] -0.01 | [7] -0.027 | [8] -0.077 | [9] -0.005 | entinostat -0.002 | vorinostat 0.002 | citarinostat 0.036 | silmitasertib 0.009 | [10] -0.075 | [11] -0.005

RPS27A (UniProt P62979)
inactive: bafetinib 0.147 | [1] 0.023 | nilotinib 0.056 | [2] 0.2 | dasatinib 0.119 | [3] 0.007 | [4] -0.172 | [5] 0 | tipifarnib 0.079 | mubritinib -0.121 | [6] 0.024 | [7] 0.16 | [8] 0.286 | [9] 0.177 | entinostat -0.047 | vorinostat -0.007 | citarinostat -0.211 | silmitasertib 0.05 | [10] 0.064 | [11] -0.06

(list continues)

RPS6 (UniProt P62753)
inactive: bafetinib 0.388 | [1] -0.002 | nilotinib 0.078 | [2] 0.211 | dasatinib 0.124 | [3] -0.045 | [4] -0.233 | [5] -0.14 | tipifarnib 0.002 | mubritinib -0.218 | [6] 0.115 | [7] 0.211 | [8] 0.299 | [9] 0.345 | entinostat -0.076 | vorinostat 0.005 | citarinostat -0.146 | silmitasertib 0.075 | [10] 0.176 | [11] -0.098

RPS13 (UniProt P62277)
inactive: bafetinib 0.342 | [1] 0 | nilotinib 0.017 | [2] 0.221 | dasatinib 0.088 | [3] -0.051 | [4] -0.237 | [5] -0.089 | tipifarnib 0.204 | mubritinib -0.184 | [6] 0.058 | [7] 0.093 | [8] 0.246 | [9] 0.115 | entinostat -0.062 | vorinostat 0.019 | citarinostat -0.121 | silmitasertib -0.022 | [10] 0.091 | [11] -0.182

RPSA (UniProt P08865)
inactive: bafetinib 0.081 | [1] -0.044 | nilotinib 0.005 | [2] 0.1 | dasatinib 0.054 | [3] -0.042 | [4] -0.023 | [5] 0.005 | tipifarnib 0.013 | mubritinib 0 | [6] -0.018 | [7] 0.035 | [8] 0.079 | [9] -0.009 | entinostat 0.025 | vorinostat -0.02 | citarinostat -0.02 | silmitasertib -0.034 | [10] 0.026 | [11] -0.051

RPL38 (UniProt P63173)
inactive: bafetinib 0.089 | [1] 0.01 | nilotinib 0.026 | [2] 0.155 | dasatinib 0.057 | [3] -0.003 | [4] -0.023 | [5] -0.022 | tipifarnib -0.021 | mubritinib 0.006 | [6] -0.005 | [7] 0.022 | [8] 0.09 | [9] 0.024 | entinostat -0.022 | vorinostat 0.002 | citarinostat -0.003 | silmitasertib -0.008 | [10] 0 | [11] -0.094

RPS6KB1 (UniProt P23443)
inactive: bafetinib -0.033 | [1] 0.009 | nilotinib -0.01 | [2] -0.053 | dasatinib -0.068 | [3] -0.017 | [4] 0.065 | [5] -0.008 | tipifarnib -0.061 | mubritinib 0.033 | [6] -0.017 | [7] -0.057 | [8] 0.014 | [9] -0.059 | entinostat 0.041 | vorinostat 0.046 | citarinostat 0.051 | silmitasertib 0.018 | [10] 0.034 | [11] -0.048

RPS19 (UniProt P39019)
inactive: bafetinib 0.242 | [1] -0.026 | nilotinib 0.046 | [2] 0.181 | dasatinib 0.083 | [3] -0.021 | [4] -0.11 | [5] -0.068 | tipifarnib 0.055 | mubritinib -0.037 | [6] -0.008 | [7] 0.075 | [8] 0.186 | [9] 0.079 | entinostat -0.06 | vorinostat -0.007 | citarinostat -0.059 | silmitasertib -0.014 | [10] 0.051 | [11] -0.107

RPS16 (UniProt P62249)
inactive: bafetinib 0.279 | [1] -0.026 | nilotinib 0.07 | [2] 0.207 | dasatinib 0.053 | [3] -0.019 | [4] -0.078 | [5] -0.048 | tipifarnib 0.107 | mubritinib -0.066 | [6] 0.086 | [7] 0.08 | [8] 0.182 | [9] 0.043 | entinostat -0.043 | vorinostat 0.017 | citarinostat -0.044 | silmitasertib -0.097 | [10] 0.093 | [11] -0.119

ROR2 (UniProt Q01974)
inactive: bafetinib 0.024 | [1] 0.052 | nilotinib 0.009 | [2] -0.105 | dasatinib -0.124 | [3] 0.063 | [4] 0.043 | [5] -0.041 | tipifarnib 0.03 | mubritinib 0.029 | [6] -0.007 | [7] -0.01 | [8] -0.03 | [9] -0.04 | entinostat 0.004 | vorinostat 0.003 | citarinostat 0.078 | silmitasertib -0.027 | [10] 0.012 | [11] -0.151

RRM1 (UniProt P23921)
inactive: bafetinib -0.03 | [1] -0.013 | nilotinib 0.018 | [2] -0.009 | dasatinib -0.052 | [3] -0.002 | [4] 0.033 | [5] -0.007 | tipifarnib -0.064 | mubritinib 0 | [6] -0.005 | [7] 0.016 | [8] -0.067 | [9] 0.019 | entinostat -0.028 | vorinostat 0.021 | citarinostat 0.025 | silmitasertib -0.012 | [10] -0.064 | [11] -0.035

RPL11 (UniProt P62913)
inactive: bafetinib 0.455 | [1] 0.045 | nilotinib -0.005 | [2] 0.252 | dasatinib 0.175 | [3] -0.025 | [4] -0.462 | [5] -0.171 | tipifarnib 0.43 | mubritinib -0.266 | [6] 0.136 | [7] 0.121 | [8] 0.407 | [9] 0.225 | entinostat -0.071 | vorinostat 0 | citarinostat -0.161 | silmitasertib 0.17 | [10] 0.164 | [11] -0.396

RPUSD2 (UniProt Q8IZ73)
inactive: bafetinib 0.007 | [1] -0.028 | nilotinib 0.025 | [2] 0.028 | dasatinib 0.001 | [3] -0.022 | [4] 0.004 | [5] -0.01 | tipifarnib 0.034 | mubritinib 0.001 | [6] 0.003 | [7] -0.006 | [8] 0.026 | [9] 0.01 | entinostat -0.004 | vorinostat 0.012 | citarinostat 0.011 | silmitasertib -0.055 | [10] -0.027 | [11] -0.025

RRAS2 isoform 4 (UniProt P62070)
inactive: bafetinib -0.05 | [1] -0.082 | nilotinib 0.111 | [2] -0.021 | dasatinib 0.066 | [3] 0.025 | [4] 0.062 | [5] -0.03 | tipifarnib 0.088 | mubritinib -0.025 | [6] -0.068 | [7] 0.03 | [8] 0.08 | [9] 0.038 | entinostat -0.059 | vorinostat -0.069 | citarinostat 0.01 | silmitasertib 0.048 | [10] -0.01 | [11] 0.013
